# In PubChem BioAssay AID272 (DTP/NCI, 2004):
# The list does not hold the whole screen: it is rich in T/C values a quarter to a half above the control, in often repeated tests (any T/C) and in doses without a T/C. Further doses and runs are listed elsewhere. T/C: endpoint of the treated group in % of that of the vehicle group. Schedules are NCI's codes, read here as Q, the interval in days (D) or hours (H), X, the number of doses. Some doses have a count of surviving animals in place of a T/C: the source files T/C as zero there, which appears to mark a toxic dose or a test without result, not a measured value. Some doses without a T/C left all or most animals alive at the check, yet need not have been tolerated: the source hardly ever lists a survival T/C far under the control, and the zero likely stands for such cases as well. Counts of survivors are from the toxicity check (mostly the fifth day) where no day follows; animals may have died later. Some entries hold several experiments; their values stand side by side, smallest first. For survival time, this PubChem deposit counts one and a half times the control or more as active, and values a quarter to a half above the control carry no call in these data; other NCI protocols may use other cut-offs. Some T/C values are followed by the survivors on the day toxicity was checked, most often the fifth; where none is given, no animal had died by that day.
# System: Lewis lung carcinoma i.m., BDF1 mice, T/C %
# Assay: NCI In Vivo Anticancer Drug Screen. Data for tumor model Lewis Lung Carcinoma (intramuscular) in B6D2F1 (BDF1) mice
# Details: schedule: Q01DX011 (ip)
# How it was run: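 Compound given to mice with transplantable tumours; survival or tumour size compared against the vehicle control group, reported as T divided by C.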
# [1] = T/C endpoint: median survival time, dose: 50.0 mg/kg/injection, vehicle: water, higher T/C = longer survival
compound,measurement,setting,value
O=C(Nc1ccc(C2=NCCN2)cc1)c1ccc(C(=O)Nc2ccc(C3=NCCN3)cc2)c(Cl)c1,survivor count,"T/C endpoint: median survival time, dose: 8.0 mg/kg/injection, vehicle: water, higher T/C = longer survival",8 of 8
same,survivor count,"T/C endpoint: median survival time, dose: 16.0 mg/kg/injection, vehicle: water, higher T/C = longer survival",4 of 8
same,survivor count,"T/C endpoint: median survival time, dose: 32.0 mg/kg/injection, vehicle: water, higher T/C = longer survival",3 of 8
same,survivor count,"T/C endpoint: median survival time, dose: 64.0 mg/kg/injection, vehicle: water, higher T/C = longer survival",0 of 8
CS(=O)(=O)c1cc(C(F)(F)F)cc([N+](=O)[O-])c1Cl,survivor count,"T/C endpoint: mean tumor weight (est.), dose: 100.0 mg/kg/injection, vehicle: saline with Tween-80, higher T/C = larger tumour",2 of 8
same,survivor count,"T/C endpoint: median survival time, dose: 100.0 mg/kg/injection, vehicle: saline with Tween-80, higher T/C = longer survival",2 of 8
same,survivor count,"T/C endpoint: median survival time, dose: 200.0 mg/kg/injection, vehicle: saline with Tween-80, higher T/C = longer survival",0 of 8
c1ccc(-c2csc3c4ccccc4c4ccccc4[n+]23)cc1,survivor count,"T/C endpoint: mean tumor weight (est.), dose: 1.0 mg/kg/injection, vehicle: saline with Tween-80, higher T/C = larger tumour",4 of 8
same,survivor count,"T/C endpoint: median survival time, dose: 1.0 mg/kg/injection, vehicle: saline with Tween-80, higher T/C = longer survival",4 of 8
same,survivor count,"T/C endpoint: median survival time, dose: 4.0 mg/kg/injection, vehicle: saline with Tween-80, higher T/C = longer survival",0 of 8
same,survivor count,"T/C endpoint: median survival time, dose: 8.0 mg/kg/injection, vehicle: saline with Tween-80, higher T/C = longer survival",0 of 8
Nc1nncs1,survivor count,"T/C endpoint: mean tumor weight, dose: 100.0 mg/kg/injection, vehicle: water, higher T/C = larger tumour",3 of 8
same,T/C,"T/C endpoint: median survival time, dose: 12.5 mg/kg/injection, vehicle: water, higher T/C = longer survival",126 % of control
same,T/C,[1],135 % of control [6 of 8 alive]
same,survivor count,[1],3 of 8
same,survivor count,"T/C endpoint: median survival time, dose: 100.0 mg/kg/injection, vehicle: water, higher T/C = longer survival",0 of 8 and 3 of 8
same,survivor count,"T/C endpoint: median survival time, dose: 200.0 mg/kg/injection, vehicle: water, higher T/C = longer survival",0 of 8 and 1 of 8
same,survivor count,"T/C endpoint: median survival time, dose: 400.0 mg/kg/injection, vehicle: water, higher T/C = longer survival",0 of 8
CCN1C=C/C(=C\C=C/c2cc[n+](CC)c3ccccc23)c2ccccc21,survivor count,"T/C endpoint: mean tumor weight (est.), dose: 0.05 mg/kg/injection, vehicle: saline, higher T/C = larger tumour",1 of 8
C1OC1CN1CCN(CC2CO2)CC1 (centres undefined),survivor count,"T/C endpoint: median survival time, dose: 1.0 mg/kg/injection, vehicle: saline, higher T/C = longer survival",7 of 8
same,survivor count,"T/C endpoint: median survival time, dose: 8.0 mg/kg/injection, vehicle: saline, higher T/C = longer survival",8 of 8
Nc1nc(=S)c2ncn(C3CC(O)C(CO)O3)c2[nH]1 (centres undefined),T/C,"T/C endpoint: mean tumor weight, dose: 1.56 mg/kg/injection, vehicle: other, evaluated on day 12, higher T/C = larger tumour",131 % of control
same,survivor count,"T/C endpoint: mean tumor weight, dose: 50.0 mg/kg/injection, vehicle: other, higher T/C = larger tumour",5 of 8
same,survivor count,"T/C endpoint: median survival time, dose: 50.0 mg/kg/injection, vehicle: other, higher T/C = longer survival",5 of 8
CC1(C)N=C(N)N=C(N)N1c1ccc(CCc2ccccc2)cc1,survivor count,"T/C endpoint: mean tumor weight, dose: 50.0 mg/kg/injection, vehicle: saline, higher T/C = larger tumour",5 of 8
same,survivor count,"T/C endpoint: mean tumor weight, dose: 100.0 mg/kg/injection, vehicle: saline, higher T/C = larger tumour",4 of 8
same,survivor count,"T/C endpoint: median survival time, dose: 50.0 mg/kg/injection, vehicle: saline, higher T/C = longer survival",5 of 8
same,survivor count,"T/C endpoint: median survival time, dose: 100.0 mg/kg/injection, vehicle: saline, higher T/C = longer survival",4 of 8
CCCCOc1ccc(NC(N)=Nc2ccc(Cl)cc2)cc1,survivor count,"T/C endpoint: median survival time, dose: 50.0 mg/kg/injection, vehicle: saline with Tween-80, higher T/C = longer survival",0 of 8
